# The supplement of paper PMC8728848
# The list shows a part of the results.
# B1: PP2A1 (Arabidopsis thaliana) (protein)
# chain: MFRNQDSKYLIPVQKEAPPVTTLPMKASTVKSPHNCEAILRDADPPISLSSVNLSEQLRSGVFLKPKKQIKYWVDERNSNCFMLFAKNLSITWSDDVNYWTWFTEKESPNENVEAVGLKNVCWLDITGKFDTRNLTPGIVYEVVFKVKLEDPAYGWDTPVNLKLVLPNGKEKPQEKKVSLRELPRYKWVDVRVGEFVPEKSAAGEITFSMYEHAAGVWKKGLSLKGVAIRPKQHHHHHH
# What was measured:
# Test in all cases: glycan array binding signal (z-score within array); higher = stronger binding
# Conditions in all cases: glycan notation: IUPAC condensed, linker removed
# [1] = biological target: Neu5Ac(a2-3)Gal(b1-3)[Fuc(a1-4)]GlcNAc(b1-3)Gal(b1-4)[Fuc(a1-3)]GlcNAc
# Outline: (§1)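 The binding signal is a Z-score computed within each array and averaged over linkers. Arrays of the same protein sequence at different concentrations or buffers were also averaged together. Data originate from 3228 arrays in the Consortium for Functional Glycomics database, kept only where the protein sequence was available.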
# [2] = biological target: Neu5Ac(a2-3)Gal(b1-3)[Neu5Ac(a2-3)Gal(b1-4)]GlcNAc
# Outline: as §1
# [3] = biological target: Neu5Ac(a2-3)Gal(b1-3)[Neu5Ac(a2-6)]GalNAc
# Outline: as §1
# Neu5Ac(a2-3)Gal(b1-4)Glc = biological target: Neu5Ac(a2-3)Gal(b1-4)Glc
# Outline: as §1
# [4] = biological target: Neu5Ac(a2-3)Gal(b1-4)GlcNAc
# Outline: as §1
# [5] = biological target: Neu5Ac(a2-3)Gal(b1-4)GlcNAc(b1-2)Man(a1-3)[GlcNAc(b1-2)Man(b1-4)GlcNAc(b1-2)Man(a1-6)]Man(b1-4)GlcNAc(b1-4)GlcNAc
# Outline: as §1
# [6] = biological target: Neu5Ac(a2-3)Gal(b1-4)GlcNAc(b1-2)Man(a1-3)[Neu5Ac(a2-6)Gal(b1-4)GlcNAc(b1-2)Man(a1-6)]Man(b1-4)GlcNAc(b1-4)GlcNAc
# Outline: as §1
# [7] = biological target: Neu5Ac(a2-3)Gal(b1-4)GlcNAc(b1-3)Gal(b1-3)GlcNAc
# Outline: as §1
# [8] = biological target: Neu5Ac(a2-3)Gal(b1-4)GlcNAc(b1-3)Gal(b1-4)GlcNAc
# Outline: as §1
# [9] = biological target: Neu5Ac(a2-3)Gal(b1-4)GlcNAc(b1-3)Gal(b1-4)GlcNAc(b1-3)Gal(b1-4)GlcNAc
# Outline: as §1
# [10] = biological target: Neu5Ac(a2-3)Gal(b1-4)GlcNAc(b1-3)Gal(b1-4)[Fuc(a1-3)]GlcNAc
# Outline: as §1
# [11] = biological target: Neu5Ac(a2-3)Gal(b1-4)GlcNAc(b1-3)GalNAc
# Outline: as §1
# [12] = biological target: Neu5Ac(a2-3)Gal(b1-4)GlcNAc(b1-6)[Gal(b1-3)]GalNAc
# Outline: as §1
# [13] = biological target: Neu5Ac(a2-3)Gal(b1-4)GlcNAc(b1-6)[Neu5Ac(a2-3)Gal(b1-3)]GalNAc
# Outline: as §1
# [14] = biological target: Neu5Ac(a2-3)Gal(b1-4)GlcNAc6S
# Outline: as §1
# [15] = biological target: Neu5Ac(a2-3)Gal(b1-4)[Fuc(a1-3)]GlcNAc
# Outline: as §1
# [16] = biological target: Neu5Ac(a2-3)Gal(b1-4)[Fuc(a1-3)]GlcNAc(b1-3)Gal
# Outline: as §1
# [17] = biological target: Neu5Ac(a2-3)Gal(b1-4)[Fuc(a1-3)]GlcNAc(b1-3)Gal(b1-4)GlcNAc
# Outline: as §1
# [18] = biological target: Neu5Ac(a2-3)Gal(b1-4)[Fuc(a1-3)]GlcNAc(b1-3)Gal(b1-4)[Fuc(a1-3)]GlcNAc(b1-3)Gal(b1-4)[Fuc(a1-3)]GlcNAc
# Outline: as §1
# [19] = biological target: Neu5Ac(a2-3)Gal(b1-4)[Fuc(a1-3)]GlcNAc(b1-3)GalNAc
# Outline: as §1
# [20] = biological target: Neu5Ac(a2-3)Gal(b1-4)[Fuc(a1-3)]GlcNAc(b1-6)[Gal(b1-3)]GalNAc
# Outline: as §1
# [21] = biological target: Neu5Ac(a2-3)Gal(b1-4)[Fuc(a1-3)]GlcNAc(b1-6)[Neu5Ac(a2-3)Gal(b1-3)]GalNAc
# Outline: as §1
# [22] = biological target: Neu5Ac(a2-3)Gal(b1-4)[Fuc(a1-3)]GlcNAc6S
# Outline: as §1
# [23] = biological target: Neu5Ac(a2-3)Gal6S(b1-4)GlcNAc
# Outline: as §1
# [24] = biological target: Neu5Ac(a2-3)Gal6S(b1-4)[Fuc(a1-3)]GlcNAc
# Outline: as §1
# Neu5Ac(a2-3)GalNAc = biological target: Neu5Ac(a2-3)GalNAc
# Outline: as §1
# [25] = biological target: Neu5Ac(a2-3)GalNAc(b1-4)GlcNAc
# Outline: as §1
# [26] = biological target: Neu5Ac(a2-3)[GalNAc(b1-4)]Gal(b1-4)Glc
# Outline: as §1
# [27] = biological target: Neu5Ac(a2-3)[GalNAc(b1-4)]Gal(b1-4)GlcNAc
# Outline: as §1
# [28] = biological target: Neu5Ac(a2-3)[Neu5Ac(a2-6)]GalNAc
# Outline: as §1
# Neu5Ac(a2-6)Gal = biological target: Neu5Ac(a2-6)Gal
# Outline: as §1
# Neu5Ac(a2-6)Gal(b1-4)Glc = biological target: Neu5Ac(a2-6)Gal(b1-4)Glc
# Outline: as §1
# [29] = biological target: Neu5Ac(a2-6)Gal(b1-4)GlcNAc
# Outline: as §1
# [30] = biological target: Neu5Ac(a2-6)Gal(b1-4)GlcNAc(b1-2)Man(a1-3)Man(b1-4)GlcNAc(b1-4)GlcNAc
# Outline: as §1
# [31] = biological target: Neu5Ac(a2-6)Gal(b1-4)GlcNAc(b1-2)Man(a1-3)[Gal(b1-4)GlcNAc(b1-2)Man(a1-6)]Man(b1-4)GlcNAc(b1-4)GlcNAc
# Outline: as §1
# [32] = biological target: Neu5Ac(a2-6)Gal(b1-4)GlcNAc(b1-2)Man(a1-3)[GlcNAc(b1-2)Man(a1-6)]Man(b1-4)GlcNAc(b1-4)GlcNAc
# Outline: as §1
binder,measurement,setting,value
B1,glycan array binding signal (z-score),[1],-0.509
same,glycan array binding signal (z-score),[2],-0.638
same,glycan array binding signal (z-score),[3],0.432
same,glycan array binding signal (z-score),Neu5Ac(a2-3)Gal(b1-4)Glc,-0.203
same,glycan array binding signal (z-score),[4],-0.269
same,glycan array binding signal (z-score),[5],1.11
same,glycan array binding signal (z-score),[6],0.209
same,glycan array binding signal (z-score),[7],-0.113
same,glycan array binding signal (z-score),[8],-0.683
same,glycan array binding signal (z-score),[9],-0.095
same,glycan array binding signal (z-score),[10],0.387
same,glycan array binding signal (z-score),[11],-0.146
same,glycan array binding signal (z-score),[12],0.192
same,glycan array binding signal (z-score),[13],-0.337
same,glycan array binding signal (z-score),[14],0.257
same,glycan array binding signal (z-score),[15],-0.28
same,glycan array binding signal (z-score),[16],-0.14
same,glycan array binding signal (z-score),[17],0.243
same,glycan array binding signal (z-score),[18],-0.402
same,glycan array binding signal (z-score),[19],2.27
same,glycan array binding signal (z-score),[20],-0.268
same,glycan array binding signal (z-score),[21],-0.091
same,glycan array binding signal (z-score),[22],-0.242
same,glycan array binding signal (z-score),[23],0.07
same,glycan array binding signal (z-score),[24],0.241
same,glycan array binding signal (z-score),Neu5Ac(a2-3)GalNAc,-0.563
same,glycan array binding signal (z-score),[25],-0.377
same,glycan array binding signal (z-score),[26],-0.143
same,glycan array binding signal (z-score),[27],0.319
same,glycan array binding signal (z-score),[28],-0.069
same,glycan array binding signal (z-score),Neu5Ac(a2-6)Gal,-0.22
same,glycan array binding signal (z-score),Neu5Ac(a2-6)Gal(b1-4)Glc,-0.255
same,glycan array binding signal (z-score),[29],-0.348
same,glycan array binding signal (z-score),[30],1.76
same,glycan array binding signal (z-score),[31],0.098
same,glycan array binding signal (z-score),[32],1.09

# For convenience, part of the list above.
binder,measurement,setting,value
B1,glycan array binding signal (z-score),[16],-0.14
same,glycan array binding signal (z-score),[17],0.243
